Data taken from PubChem BioAssay AID1724 (National Center for Advancing Translational Sciences (NCATS), 2009).
This list was built around the results that the source calls inconclusive (neither active nor inactive); the mix of calls is not that of the screen. Where a call stands in place of a potency, no number is given. A potency beside an inconclusive call is a rough fit, not a confirmed value. Activity calls are given as the source filed them. Calls follow the shape of the dose curve; as a rule, active = well fitted inhibition curve with a large enough effect; inconclusive = small, poorly fitted or top-dose-only effect, or effect the other way; inactive = no such curve, though single readings can be large or run the other way.

Assay: Confirmation Concentration-Response Assay for Inhibitors of the ERK Signaling Pathway using a Homogeneous Screening Assay
From the text: qHTS Assay for Inhibitors of the ERK Signaling Pathway using a Homogeneous Screening Assay
NIH Chemical Genomics Center [NCGC]
NIH Molecular Libraries Screening Centers Network [MLSCN]
Assay Submitter (PI): Dr. Wei Zheng, NCGC/NIH
The Ras/extracellular-signal-regulated kinase (ERK) mitogen activated protein (MAP) kinase signaling pathway (ERK1/2 cascade) plays is a key role in transmitting signals from the cell surface to the nucleus (Nishida and Gotoh 1993; Chang and Karin, 2001). The cascade is initiated by the small G-protein Ras, which recruits Raf […], where activation occurs. Alternatively, this pathway can be activated by elevating intracellular cAMP.
Activation of the ERK pathway is essential in increased cell division and cell survival. […]
HEK293 cells stably expressing type-1 vasopressin receptor (V1b) were maintained in DMEM medium (Invitrogen, Carlsbad, CA) at 37C under a humidified atmosphere containing 5% CO2 and 95% air. […] The ERK phosphorylation in cells was determined using an AlphaScreen assay kit provided by PerkinElmer. […] AC50 values were determined from concentration-response data modeled with the standard Hill equation. […]
(10) Detect the assay plate in an EnVision plate reader (PerkinElmer) using the AlphaScreen detection mode. […]

SMILES	Potency
O=C1NC(=O)C(=Cc2ccccc2Oc2ccc(F)cc2)C(=O)N1	inactive
CCN1C(=O)NC(=O)/C(=C/c2cc(C)n(-c3sc(C)c(C)c3C#N)c2C)C1=O	inconclusive: 15.8 µM [inhibitor, partial curve, poor fit]
